Patent US6987004B1, “Genes integrating signal transduction pathways” (Massachusetts Institute of Technology, priority 1998, dated 2006)
At least one compound was matched to its structure with a doubt left.

Tested on: Rap1A
Test: GTP-bound Rap1A in 293T cells in the absence of cAMP-GEFs
Type: cell-based
Details: treatment alone
From the text: Forskolin/IBMX treatment given alone had no effect.
cAMP-dependent activation of Rap1 has previously been ascribed to the phosphorylation of Rap1A by PKA, which raises its affinity to smgGDS, a GEF with broad substrate specificity. […] The activation of Rap1A induced by cAMP-GEFI and II is independent of the PKA pathway.

SMILES: C=C[C@@]1(C)CC(=O)[C@]2(O)[C@@]3(C)[C@@H](O)CCC(C)(C)[C@@H]3[C@H](O)[C@H](OC(C)=O)[C@@]2(C)O1 [forskolin]
- Increase of GTP-bound Rap1A without cAMP-GEF: not detected
